Experimental data: PubChem BioAssay AID1259283 (Sanger Institute, 2017)
Assay: 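Kinases needed for HT115 growth and partners for drug synergy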 (primary screen). System: HT115 colorectal cancer cells. Reagent: siRNA pool against human genes. Treatment: anchor drug given one day after siRNA: BYL719 at 1 µM, cetuximab at 5 µg/ml, trametinib at 10 nM, or DMSO vehicle alone. Measured: 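Viability normalised to non-targeting pool #2 wells and averaged over replicates, robust z-score against control wells, and a synergy score for each of three drugs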. Direction: robust z-score, knock-down alone: higher = more viable cells after knock-down; viability, DMSO vs non-targeting control: higher = more viable cells; synergy score with BYL719 and synergy score with cetuximab and synergy score with trametinib: higher = stronger synergy with drug (synthetic lethal). Rule for the call: 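Essential gene: robust z-score less than -3 with no drug added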. Meaning of the calls: active = essential (z below -3, no drug); inactive = no change without drug.
In all, the deposit lists 794 reagents; this is a random part of them. 14 of all reagents (1.8%) count as active. 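Calls reflect only viability loss without drug; drug synergy does not enter the call.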 Viability is capped at 1. No sequences are given here. Not given: the amount of reagent, the time to read-out.

gene | robust z-score, knock-down alone | viability, DMSO vs non-targeting control (fraction of control) | synergy score with BYL719 | synergy score with cetuximab | synergy score with trametinib | Call
ACVR1C (activin A receptor type 1C) | 0.789 | 1 | 0.0315 | 0.0252 | 0.0368 | inactive
CSNK2A1 (casein kinase 2 alpha 1) | 0.486 | 0.972 | 0.0106 | 0.0795 | 0.0327 | inactive
MGA (MAX dimerization protein MGA) | -2.51 | 0.695 | 0.0114 | -0.0407 | -0.0271 | inactive
STK11 (serine/threonine kinase 11) | -2.22 | 0.722 | -0.153 | -0.0557 | 0.219 | inactive
RIPK3 (receptor interacting serine/threonine kinase 3) | 0.789 | 1 | 0.104 | 0.0755 | -0.00772 | inactive
ITPK1 (inositol-tetrakisphosphate 1-kinase) | 0.789 | 1 | -0.0224 | -0.0435 | -0.0768 | inactive
CAD | 0.789 | 1 | 0.00706 | -0.0355 | 0.0165 | inactive
MAP2K2 (mitogen-activated protein kinase kinase 2) | 0.554 | 0.978 | -0.0269 | 0.0134 | 0.0403 | inactive
MKNK2 (MAPK interacting serine/threonine kinase 2) | 0.323 | 0.957 | 0.0561 | 0.0661 | 0.035 | inactive
PXK (PX domain containing serine/threonine kinase like) | -0.205 | 0.908 | 0.0118 | -0.0865 | -0.0343 | inactive
IKBKB (inhibitor of nuclear factor kappa B kinase subunit beta) | -0.224 | 0.906 | -0.1 | -0.000931 | 0.217 | inactive
IP6K1 (inositol hexakisphosphate kinase 1) | 0.789 | 1 | -0.0224 | 0.0453 | 0.131 | inactive
CAMK2A (calcium/calmodulin dependent protein kinase II alpha) | 0.789 | 1 | 0.0658 | 0.0299 | 0.112 | inactive
GOLGA5 (golgin A5) | 0.536 | 0.977 | -0.0313 | 0.0293 | 0.0317 | inactive
CHD4 (chromodomain helicase DNA binding protein 4) | -2.95 | 0.654 | -0.138 | -0.074 | -0.178 | inactive
THNSL1 (threonine synthase like 1) | 0.645 | 0.987 | -0.0354 | 0.0135 | -0.0356 | inactive
MECOM (MDS1 and EVI1 complex locus) | 0.789 | 1 | 0.133 | 0.089 | 0.0609 | inactive
ALPK1 (alpha kinase 1) | -3.07 | 0.643 | -0.198 | -0.173 | -0.0737 | active
MAPK4 (mitogen-activated protein kinase 4) | -1.27 | 0.81 | -0.0294 | 0.00336 | 0.0133 | inactive
MPP1 (MAGUK p55 scaffold protein 1) | 0.789 | 1 | 0.105 | 0.153 | 0.17 | inactive
AXIN2 (axin 2) | 0.133 | 0.939 | 0.0972 | 0.0543 | 0.0541 | inactive

Next part; the last 7 above are carried over.
gene | robust z-score, knock-down alone | viability, DMSO vs non-targeting control (fraction of control) | synergy score with BYL719 | synergy score with cetuximab | synergy score with trametinib | Call
CHD4 (chromodomain helicase DNA binding protein 4) | -2.95 | 0.654 | -0.138 | -0.074 | -0.178 | inactive
THNSL1 (threonine synthase like 1) | 0.645 | 0.987 | -0.0354 | 0.0135 | -0.0356 | inactive
MECOM (MDS1 and EVI1 complex locus) | 0.789 | 1 | 0.133 | 0.089 | 0.0609 | inactive
ALPK1 (alpha kinase 1) | -3.07 | 0.643 | -0.198 | -0.173 | -0.0737 | active
MAPK4 (mitogen-activated protein kinase 4) | -1.27 | 0.81 | -0.0294 | 0.00336 | 0.0133 | inactive
MPP1 (MAGUK p55 scaffold protein 1) | 0.789 | 1 | 0.105 | 0.153 | 0.17 | inactive
AXIN2 (axin 2) | 0.133 | 0.939 | 0.0972 | 0.0543 | 0.0541 | inactive
ERBB2 (erb-b2 receptor tyrosine kinase 2) | 0.789 | 1 | -0.0224 | 0.0652 | -0.0256 | inactive
LMBR1 (limb development membrane protein 1) | 0.77 | 0.998 | 0.0333 | -0.00113 | 0.122 | inactive
NRBP2 (nuclear receptor binding protein 2) | -1.01 | 0.833 | 0.0566 | -0.00822 | 0.0217 | inactive
PRKAG2 (protein kinase AMP-activated non-catalytic subunit gamma 2) | 0.747 | 0.996 | 0.0483 | -0.0472 | 0.0153 | inactive
TTK (TTK protein kinase) | -0.249 | 0.904 | -0.00549 | 0.0248 | -0.0115 | inactive
RPS6KA6 (ribosomal protein S6 kinase A6) | 0.228 | 0.948 | 0.0495 | 0.0492 | 0.0643 | inactive
MAP2K1 (mitogen-activated protein kinase kinase 1) | 0.774 | 0.999 | -0.00562 | 0.0476 | 0.0337 | inactive
APC (APC regulator of Wnt signaling pathway) | 0.61 | 0.983 | 0.162 | 0.115 | 0.225 | inactive
DNMT3A (DNA methyltransferase 3 alpha) | -3.25 | 0.627 | -0.142 | -0.164 | -0.148 | active
MAP3K20 (mitogen-activated protein kinase kinase kinase 20) | 0.789 | 1 | 0.0916 | 0.0696 | -0.0703 | inactive
TSSK4 (testis specific serine kinase 4) | -0.142 | 0.914 | -0.107 | -0.0859 | 0.112 | inactive
STK39 (serine/threonine kinase 39) | -3.19 | 0.632 | -0.0696 | -0.188 | 0.0431 | active
GCK (glucokinase) | -2.41 | 0.704 | -0.0656 | -0.0567 | -0.00621 | inactive
PAK3 (p21 (RAC1) activated kinase 3) | 0.153 | 0.941 | 0.03 | 0.0894 | 0.088 | inactive
RELA (RELA proto-oncogene, NF-kB subunit) | 0.143 | 0.94 | -0.00317 | 0.0528 | 0.128 | inactive
AK2 (adenylate kinase 2) | 0.789 | 1 | -0.0224 | -0.0435 | 0.153 | inactive
MAPK10 (mitogen-activated protein kinase 10) | 0.789 | 1 | 0.0299 | 0.0353 | 0.134 | inactive
KDR (kinase insert domain receptor) | 0.789 | 1 | 0.0817 | 0.123 | -0.0413 | inactive
MKNK1 (MAPK interacting serine/threonine kinase 1) | 0.789 | 1 | -0.000937 | 0.147 | 0.0821 | inactive
MATK (megakaryocyte-associated tyrosine kinase) | 0.627 | 0.985 | -0.037 | 0.0605 | 0.128 | inactive
LYN (LYN proto-oncogene, Src family tyrosine kinase) | -0.558 | 0.875 | -0.0403 | -0.0459 | 0.00903 | inactive
PIP5K1C (phosphatidylinositol-4-phosphate 5-kinase type 1 gamma) | -0.809 | 0.852 | -0.124 | 0.0306 | 0.00955 | inactive
IGF2R (insulin like growth factor 2 receptor) | 0.789 | 1 | 0.0289 | 0.0253 | 0.0261 | inactive
CAMK2N1 (calcium/calmodulin dependent protein kinase II inhibitor 1) | -0.914 | 0.843 | 0.00738 | 0.109 | 0.179 | inactive
NAGK (N-acetylglucosamine kinase) | -0.835 | 0.85 | -0.122 | -0.0452 | -0.16 | inactive
PBK (PDZ binding kinase) | 0.423 | 0.966 | -0.0433 | -0.0126 | -0.0552 | inactive
GRK6 (G protein-coupled receptor kinase 6) | 0.431 | 0.967 | 0.00184 | 0.015 | 0.0549 | inactive
PAK6 (p21 (RAC1) activated kinase 6) | 0.158 | 0.942 | 0.106 | 0.176 | 0.174 | inactive
ALPK2 (alpha kinase 2) | 0.789 | 1 | 0.04 | -0.0435 | 0.0106 | inactive
